The data set has as its target T1, OmpR (UniProt P0AA19).
T1 sequence (looked up, limits assumed): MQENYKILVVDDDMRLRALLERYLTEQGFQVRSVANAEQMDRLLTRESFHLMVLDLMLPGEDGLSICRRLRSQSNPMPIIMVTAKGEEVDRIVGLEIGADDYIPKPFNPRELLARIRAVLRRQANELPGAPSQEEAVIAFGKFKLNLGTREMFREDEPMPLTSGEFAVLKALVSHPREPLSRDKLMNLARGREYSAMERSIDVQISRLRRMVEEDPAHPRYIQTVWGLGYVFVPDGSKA
The experiment in a line: EMSA. The settings on record: 1 mM Mg2+, poly(dI-dC), EMSA: 10 mM Tris pH 7.5, 50 mM KCl, 2.5% glycerol, 1 mM MgCl2, 0.05% NP-40, 1 ug poly(dI-dC), 10 fmol DNA in 15 ul, temperature not given, recombinant protein, protein details: His (pET15b), label: biotin 5' end, probe letters rebuilt from the primers and the genome. A general note: Mobility shift assays separate free from complexed probe on a gel.

The exact form of at least one protein or probe is not confirmed. A negative result means that nothing was seen under these conditions. Where a protein sequence is shown, tags need not be part of it.

Take “AAGGTGGCTCCTACCCGTGATCCCTTGACGGAACTAGCAAGTCAAAGCCTGGTTCCGCCGCTTTATCGCTGCGGTAAATAACGCAGCGGGTTTACGGATTTCCCCTTGTAACGAATTTCAAAATGCAAGCGTGTAGAGCTGGTGCCGGTGCTACCCATAGTAGCGATTTTTTGCCCCGCCTTAACTTCCTGTTGTTCCCGGACCAGCATCGTATCATTATGGGCGTAGGCACTCAGGTAATCATCGTTATGTTTGATGATAATAAGATTACCGTAACCACGCAGTGCGTTACCGGCATATACGACGCGCCCATCAGCGGTTGCGACGATAGCCTGTCCCTTACTGCCTGCAATGTCGATCCCTTTATTGCCCCCTTCGGAAGCGCCAAAGTTTTCGATCACTTTGCCATCCGTCGGCCAG (double strand) [rpoS upstream region]”: the binding result (100-fold unlabeled DNA as competitor) was “binds”.

In the case of “AGACATTGAGCTTCTCCCTTCAGGTTGAACACCCTTTAAGCGTAGACACTTTTACTACCGTAAGAGGGAGAATCAGAACGATCCTTATGCTTCGCCCGTATTCACAACAGAGTTAACTAGCCATGAAGGTTATTTTTCTTGCCGTGCGACGGTGGTGACGTTGCGCGTCCGGTAGTCGCCATCGGAAAGCTTACGCGTCAGACGTAAGGTTGCCGTCTCGCGAGCCAGCAGATGCTGCCAGTCACTTTCAAGACGAGACATAATTTTGTCTCGTAATTCAGGATGCTGCTCGATAATGGCATTGATGGTCGCGCCATAAATCTCCTCTTTGACCTGTAACGCATA (double strand) [yghA (also printed yhgA) upstream region]”, the binding result is given as “no binding”.

Values taken from article PMC5686162, “Non-canonical activation of OmpR drives acid and osmotic stress responses in single bacterial cells” (Nature Communications, 2017).
